Experimental data as given in article PMC6925144, “A prospective compound screening contest identified broader inhibitors for Sirtuin 1” (Scientific Reports, 2019).
Over roughly 3,200 compounds, “TSA(with NAD+) / Primary screening (TSA) / delta Tm (K)” has its median near -0.04; the highest 2% begin near 0.37. The list shows a part of the results.

Protein sequences, listed by entry. Tags and fused reporters are not part of them. Residues count along the entry.
UniProt Q96EB6, 2-747 limits assumed: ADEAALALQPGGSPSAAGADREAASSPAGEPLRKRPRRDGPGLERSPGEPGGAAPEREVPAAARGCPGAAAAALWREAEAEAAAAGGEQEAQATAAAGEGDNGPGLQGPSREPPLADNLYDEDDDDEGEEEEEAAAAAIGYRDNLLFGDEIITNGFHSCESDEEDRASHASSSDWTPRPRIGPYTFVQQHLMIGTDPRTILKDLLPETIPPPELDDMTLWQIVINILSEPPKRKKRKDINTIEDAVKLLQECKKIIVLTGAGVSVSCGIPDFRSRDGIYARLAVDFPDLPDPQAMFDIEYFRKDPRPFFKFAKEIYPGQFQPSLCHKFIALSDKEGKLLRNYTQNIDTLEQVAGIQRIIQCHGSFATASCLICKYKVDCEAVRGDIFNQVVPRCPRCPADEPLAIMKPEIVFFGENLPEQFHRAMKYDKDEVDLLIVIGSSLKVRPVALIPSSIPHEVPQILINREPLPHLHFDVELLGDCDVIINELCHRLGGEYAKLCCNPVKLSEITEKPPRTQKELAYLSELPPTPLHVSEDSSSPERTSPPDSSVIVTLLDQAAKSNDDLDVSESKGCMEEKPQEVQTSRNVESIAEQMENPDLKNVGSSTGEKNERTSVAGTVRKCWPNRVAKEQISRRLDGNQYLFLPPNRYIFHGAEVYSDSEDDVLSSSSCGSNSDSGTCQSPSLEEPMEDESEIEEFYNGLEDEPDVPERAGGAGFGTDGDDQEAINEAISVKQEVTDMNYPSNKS

What follows are molecules tested against NAD-dependent deacetylase Sirtuin 1 (human, UniProt Q96EB6) (assay: primary screen, delta tm). Conditions: 10 µM.
Set-up: single well (n = 1, as 'the same TSA')

| SMILES | TSA(with NAD+) / Primary screening (TSA) / delta Tm (K) |
| --- | --- |
| C=CCN(C(=O)CSc1nnc(-c2ccccc2)o1)c1nc(-c2ccccc2)cs1 | -0.12 |
| Cn1ncc2c(=O)cc[nH]c21 | -0.03 |
| COc1cc(C)ccc1Oc1ccc(NC(=O)Cc2c(C)nc(-c3ccccn3)[nH]c2=O)cn1 | 0.06 |
| COc1ccc(Br)cc1/C=C1/Cc2ccccc2C1=O | -0.15 |
| CCN(C(=O)COC(=O)CN1C(=O)NC2(CCCc3ccccc32)C1=O)c1nc2ccccc2s1 (stereo not drawn) | -0.26 |
| O=C(C1=C(O)C(=O)N(CCCN2CCOCC2)C1c1cccc([N+](=O)[O-])c1)c1ccc(F)cc1 (stereo not drawn) | 0.06 |
| O=C(CNc1cnc2ccccc2n1)N1CCCc2ccccc21 | -0.03 |
| NC(=O)c1cccc(NC(=O)c2nn(Cc3ccccc3)c(=O)c3ccccc23)c1 | 0.06 |
| O=C(OCc1cc(=O)n2ccccc2n1)c1ccccc1C(F)(F)F | -0.15 |
| CC(=O)Nc1ccc(NCc2cc(=O)oc3c(C)c(O)ccc23)cc1Cl | -0.11 |
| OCC[C@@H](Nc1cncc(Cl)n1)c1ccccc1 | 0.03 |
| O=c1[nH]c(CSc2cc(Cl)ccc2Cl)nc2ccsc12 | -0.01 |
| O=C(NN/C=C1/C(=O)N(c2cccc(C(F)(F)F)c2)C(=O)c2ccccc21)c1cccc(S(=O)(=O)Nc2ccccc2Cl)c1 | 0.99 |
| Cc1oc2nc[nH]c(=O)c2c1C(=O)NCc1ccc(OCc2ccccc2)cc1 | -0.08 |
| O=C(O)c1nc(Nc2ccc(Cl)cc2)c2ccccc2n1 | -0.11 |
| O=C(CCc1c[nH]c2ccccc12)NCCc1ccco1 | -0.11 |
| c1ccc(-c2nnc(CSc3nnc(-c4cccs4)n3C3CC3)o2)cc1 | 0.05 |
| CCc1c(C)c(C#N)c2nc3ccccc3n2c1Cl | -0.05 |
| Cc1nn2c(nc(N3CCN(C4CCS(=O)(=O)C4)CC3)c3ccccc32)c1Cl (stereo not drawn) | -0.03 |
| COc1ccc(NC(=O)CSCC(=O)Nc2cccc(C)c2)cc1OCc1cn2ccccc2n1 | -0.22 |

| SMILES | TSA(with NAD+) / Primary screening (TSA) / delta Tm (K) |
| --- | --- |
| O=c1[nH]c2ccc(CNCc3ccsc3)cc2[nH]1 | -0.05 |
| O=C(CCc1ccccc1)Nc1ccccc1Cc1ccccc1 | -0.06 |
| CC(C)N(CC(N)=O)Cc1sc2ccccc2c1Cl | -0.19 |
| CCN1CCC(N)C1 (stereo not drawn) | -0.28 |
| CC(=O)Nc1ccc(NC(=O)c2ccccc2SCC(=O)NC23CC4CC(CC(C4)C2)C3)cc1 | 0.06 |
| CCN(CC)C1CCN(C(=O)Nc2cc(-n3cnnn3)ccc2F)C1 (stereo not drawn) | -0.06 |
| COc1ccc(N(C)S(=O)(=O)c2cccc(C(=O)Nc3ccc(Br)c(C(F)(F)F)c3)c2)cc1 | 0.69 |
| CC(C)NS(=O)(=O)NC(C)C(=O)NCCc1c[nH]c2ccccc12 (stereo not drawn) | -0.01 |
| O=C(O)c1ccc2[nH]c3c(c2c1)CNCC3 | -0.09 |
| NC(=O)CC1CCN(C(=O)CCc2c[nH]c3ccccc23)CC1 | -0.03 |
| CC(O)CN1CCC(CN(C)Cc2cccc(C(N)=O)c2)CC1 (stereo not drawn) | -0.02 |
| Cn1c(-c2ccccc2)c(C(=O)N2CCCC2)c2ccccc21 | 0.07 |
| Cc1cc(C(=O)COC(=O)c2ccc(C(N)=O)cc2)c(C)n1CC1CCCO1 (stereo not drawn) | -0.13 |
| O=C(NC(=S)Nc1ccc(-c2nc3ccccc3[nH]2)cc1)C12CC3CC(CC(C3)C1)C2 | 0.43 |
| N#CC(C(=O)CN1CCN(Cc2ccccc2)CC1)c1ccccc1 (stereo not drawn) | 0.03 |
| CCOCCN | -0.06 |
| CC(=O)N1N=C(c2ccc(O)cc2)CC1c1ccco1 (stereo not drawn) | -0.04 |
| Cc1ccc(CNc2ncnc3ccsc23)cc1 | -0.13 |
| Cc1c(C(=O)O)sc2nc(SCC(=O)N3CCCC3)[nH]c(=O)c12 | -0.09 |
| COc1ccc2nc(SCC(N)=O)[nH]c2c1 | -0.22 |

| SMILES | TSA(with NAD+) / Primary screening (TSA) / delta Tm (K) |
| --- | --- |
| CCCc1nc(CSc2nccn2Cc2ccccn2)cs1 | -0.03 |
| Nc1nc(COC(=O)C2CCN(C(=O)NCc3ccco3)CC2)nc2ccccc12 | -0.09 |
| O=C1NC(c2sc3ccccc3c2Cl)Nc2ccccc21 (stereo not drawn) | -0.24 |
| N#Cc1ccc(Cl)cc1NC(=O)COC(=O)c1nc(-c2ccccc2)n(-c2ccccc2)n1 | -0.04 |
| CC(OC(=O)c1csc(-c2ccccc2)n1)C(=O)NCc1ccco1 (stereo not drawn) | -0.13 |
| O=C1C(NCc2cscn2)CCCN1c1cccnc1 (stereo not drawn) | 0.08 |
| NC(=O)COC(=O)c1ccc(OCC(=O)Nc2cccc(C(F)(F)F)c2)cc1 | 0.23 |
| Cc1cc(-c2csc(NC(=O)c3ccc(NC(N)=O)cc3)n2)c(C)n1CCc1ccccc1 | 0.23 |
| Cc1ccc(Cn2nc(C)c(/C=C/C(=O)c3ccc(OC(C)C(=O)O)cc3)c2C)cc1 (stereo not drawn) | -0.23 |
| Cc1cc(C)c(OC(=O)CCc2c(C)nc3c(C(N)=O)cnn3c2C)c(C)c1 | -0.21 |
| Cc1ccc(O)c(C(=O)N2CCC(=C3C(=O)Nc4ccccc43)CC2)c1 | 0.09 |
| CC(C)(C)CN | -0.13 |
| NC(=O)C1CCN(c2ncnc3ccsc23)CC1 | 0.15 |
| O=C(NOCCC(F)(F)F)c1ccc(-c2nnc(S)o2)cc1 | -0.14 |
| Cc1c(C(=O)NC2CCCCCC2)oc2c1ccc1ccccc12 | -0.14 |
| COc1ccc(N2CC(=O)C(c3n(C)c4ccccc4[n+]3C)=C2N)cc1 | -0.08 |
| O=C(O)/C=C/c1nc2ccccc2s1 | -0.03 |
| Cc1cccc(C(C)(C)CNC(=O)c2ccc3c(c2)NC(=O)CCN3C)c1 | 0.15 |
| Cn1cc(S(=O)(=O)Nc2ccc3c(c2)CCCN3Cc2ccccc2)cc1C(N)=O | 0.03 |
| CN(C)S(=O)(=O)c1cccc(NC(=S)NNc2ccnc3cc(Cl)ccc23)c1 | -0.21 |

A portion of the results above, for reference:

| SMILES | TSA(with NAD+) / Primary screening (TSA) / delta Tm (K) |
| --- | --- |
| Nc1nc(COC(=O)C2CCN(C(=O)NCc3ccco3)CC2)nc2ccccc12 | -0.09 |
| O=C1NC(c2sc3ccccc3c2Cl)Nc2ccccc21 (stereo not drawn) | -0.24 |
| N#Cc1ccc(Cl)cc1NC(=O)COC(=O)c1nc(-c2ccccc2)n(-c2ccccc2)n1 | -0.04 |
